According to paper PMC3782429:
These are yes or no findings as the source states them, for the method shown. Binding seen in cells or lysates may run through a third protein. Some entries that bind do so weakly or less than the wild type.

The chains behind the UniProt entries cited, without tags or fusion partners.
UniProt F1M5N7: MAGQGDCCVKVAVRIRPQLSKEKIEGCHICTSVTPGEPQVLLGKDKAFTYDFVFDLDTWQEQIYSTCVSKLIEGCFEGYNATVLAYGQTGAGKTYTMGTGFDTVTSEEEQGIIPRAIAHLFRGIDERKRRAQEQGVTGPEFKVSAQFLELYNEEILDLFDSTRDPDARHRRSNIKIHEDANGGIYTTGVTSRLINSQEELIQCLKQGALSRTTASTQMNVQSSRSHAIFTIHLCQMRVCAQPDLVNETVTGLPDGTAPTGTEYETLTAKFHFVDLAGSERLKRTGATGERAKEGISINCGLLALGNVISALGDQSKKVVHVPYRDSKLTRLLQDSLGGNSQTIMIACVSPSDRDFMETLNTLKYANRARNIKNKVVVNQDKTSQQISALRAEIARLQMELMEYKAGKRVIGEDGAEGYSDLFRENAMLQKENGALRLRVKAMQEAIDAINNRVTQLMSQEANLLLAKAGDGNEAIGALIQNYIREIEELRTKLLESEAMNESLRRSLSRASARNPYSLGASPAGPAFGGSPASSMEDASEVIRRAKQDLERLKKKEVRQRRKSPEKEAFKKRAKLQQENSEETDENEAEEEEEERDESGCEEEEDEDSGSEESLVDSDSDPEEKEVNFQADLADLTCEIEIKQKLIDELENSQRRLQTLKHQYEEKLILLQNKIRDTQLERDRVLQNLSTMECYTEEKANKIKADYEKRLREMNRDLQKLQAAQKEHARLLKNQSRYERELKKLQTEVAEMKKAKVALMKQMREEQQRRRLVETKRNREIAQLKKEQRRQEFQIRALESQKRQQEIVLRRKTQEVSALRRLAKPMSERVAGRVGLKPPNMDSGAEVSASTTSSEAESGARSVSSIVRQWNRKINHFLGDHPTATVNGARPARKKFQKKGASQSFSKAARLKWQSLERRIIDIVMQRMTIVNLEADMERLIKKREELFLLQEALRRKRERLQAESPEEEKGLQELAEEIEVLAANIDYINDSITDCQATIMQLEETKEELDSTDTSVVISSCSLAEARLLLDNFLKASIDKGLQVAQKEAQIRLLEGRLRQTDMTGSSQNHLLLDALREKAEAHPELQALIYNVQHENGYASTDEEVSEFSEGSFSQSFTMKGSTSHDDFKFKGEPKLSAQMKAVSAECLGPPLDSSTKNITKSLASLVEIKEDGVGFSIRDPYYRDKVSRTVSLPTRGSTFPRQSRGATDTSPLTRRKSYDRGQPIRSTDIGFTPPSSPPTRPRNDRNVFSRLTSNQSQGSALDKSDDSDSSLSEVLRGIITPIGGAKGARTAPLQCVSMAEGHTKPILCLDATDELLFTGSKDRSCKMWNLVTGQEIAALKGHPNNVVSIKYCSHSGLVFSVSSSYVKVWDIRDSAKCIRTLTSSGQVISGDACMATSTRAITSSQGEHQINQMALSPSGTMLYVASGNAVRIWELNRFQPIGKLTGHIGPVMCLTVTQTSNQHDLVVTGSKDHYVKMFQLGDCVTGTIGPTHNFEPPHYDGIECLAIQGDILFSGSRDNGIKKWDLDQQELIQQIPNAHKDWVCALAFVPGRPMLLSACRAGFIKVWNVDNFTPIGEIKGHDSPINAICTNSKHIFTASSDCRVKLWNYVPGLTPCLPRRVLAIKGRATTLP

Target: KIF21B (endogenous, rat brain) (rat (endogenous in brain)) (UniProt F1M5N7)
Assay: co-IP; anti-KIF21B antibody on Protein G Dynabeads incubated 30 min at 4 °C with rat brain P4 lysate (400,000 x g, IM-Ac buffer, 1% Triton-X-100, precleared); washed with modified RIPA buffer; Western blot; control IgG

- binding: binds
B1: TRIM3 (endogenous, rat brain) (protein, UniProt O70277 1-744)
chain: MAKREDSPGPEVQPMDKQFLVCSICLDRYRCPKVLPCLHTFCERCLQNYIPPQSLTLSCPVCRQTSILPEQGVSALQNNFFISSLMEAMQQAPDGAHDPEDPHPLSAVAGRPLSCPNHEGKTMEFYCEACETAMCGECRAGEHREHGTVLLRDVVEQHKAALQRQLEAVRGRLPQLSAAIALVGGISQQLQERKAEALAQISAAFEDLEQALQQRKQALVSDLESICGAKQKVLQTQLDTLRQGQEHIGSSCSFAEQALRLGSAPEVLLVRKHMRERLAALAAQAFPERPHENAQLELVLEVDGLRRSVLNLGALLTTSAAAHETVATGEGLRQALVGQPASLTVTTKDKDGRLVRTGSAELCAEITGPDGMRLAVPVVDHKNGTYELVYTARTEGDLLLSVLLYGQPVRGSPFRVRALRPGDLPPSPDDVKRRVKSPGGPGSHVRQKAVRRPSSMYSTGGKRKDNPIVDELVFRVGSRGREKGEFTNLHPLSAASSGRIVVADSNNQCIQVFSNEGQFKFRFGVRGRSPGQLQRPTGVAVDTNGDIIVADYDNRWVSIFSPEGKFKTKIGAGRLMGPKGVAVDRNGHIIVVDNKSCCVFTFQPNGKLVGRFGGRGATDRHFAGPHFVAVNNKNEIVVTDFHNHSVKVYSADGEFLFKFGSHGEGNGQFNAPTGVAVDSNGNIIVADWGNSRIQVFDSSGSFLSYINTSAEPLYGPQGLALTSDGHVVVADAGNHCFKAYRYLQ
